Here are results for six substances from publication PMC6326806.

Chains of the proteins cited; added tags and fusions are not shown. Lines headed by an entry give the natural chain unless they say otherwise; changes in a name come on top. A line that says so, or that is headed by a name, gives the form on record, which may keep a tag or linker.
UniProt P20248: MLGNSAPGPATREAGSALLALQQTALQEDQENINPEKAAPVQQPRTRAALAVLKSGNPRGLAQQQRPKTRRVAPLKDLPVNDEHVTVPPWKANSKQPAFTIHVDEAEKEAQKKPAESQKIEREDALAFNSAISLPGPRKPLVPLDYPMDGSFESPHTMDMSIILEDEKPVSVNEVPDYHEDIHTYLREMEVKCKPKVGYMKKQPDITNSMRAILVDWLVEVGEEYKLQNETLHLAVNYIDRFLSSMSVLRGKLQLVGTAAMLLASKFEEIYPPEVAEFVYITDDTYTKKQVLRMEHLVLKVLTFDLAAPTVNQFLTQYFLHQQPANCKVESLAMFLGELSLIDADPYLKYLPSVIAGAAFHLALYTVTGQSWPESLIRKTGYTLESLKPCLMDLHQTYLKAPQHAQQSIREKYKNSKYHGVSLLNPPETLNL
UniProt Q13526: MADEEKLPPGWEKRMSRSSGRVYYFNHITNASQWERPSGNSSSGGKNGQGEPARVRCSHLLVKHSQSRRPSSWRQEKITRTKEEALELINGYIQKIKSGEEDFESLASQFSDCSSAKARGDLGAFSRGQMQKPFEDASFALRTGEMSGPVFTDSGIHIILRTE
UniProt P10244: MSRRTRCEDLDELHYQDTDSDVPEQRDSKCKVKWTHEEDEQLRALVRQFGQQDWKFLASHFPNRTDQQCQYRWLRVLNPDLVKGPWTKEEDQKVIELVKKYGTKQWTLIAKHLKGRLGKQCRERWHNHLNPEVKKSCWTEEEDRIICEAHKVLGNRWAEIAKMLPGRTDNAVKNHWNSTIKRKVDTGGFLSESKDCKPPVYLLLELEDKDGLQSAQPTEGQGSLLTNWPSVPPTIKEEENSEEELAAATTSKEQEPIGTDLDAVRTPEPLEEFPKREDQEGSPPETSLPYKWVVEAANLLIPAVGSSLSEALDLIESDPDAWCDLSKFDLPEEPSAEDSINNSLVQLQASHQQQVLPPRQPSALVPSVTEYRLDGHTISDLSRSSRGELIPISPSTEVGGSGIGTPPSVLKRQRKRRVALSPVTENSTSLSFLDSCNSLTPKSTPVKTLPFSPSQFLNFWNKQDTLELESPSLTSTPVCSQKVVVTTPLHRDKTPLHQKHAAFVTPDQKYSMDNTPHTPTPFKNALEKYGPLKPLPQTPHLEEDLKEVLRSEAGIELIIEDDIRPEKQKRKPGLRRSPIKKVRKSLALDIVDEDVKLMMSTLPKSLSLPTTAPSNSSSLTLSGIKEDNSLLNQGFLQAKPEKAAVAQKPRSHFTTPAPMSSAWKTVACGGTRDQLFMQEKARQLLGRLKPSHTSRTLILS
B-Myb(CBM) (P10244, form named): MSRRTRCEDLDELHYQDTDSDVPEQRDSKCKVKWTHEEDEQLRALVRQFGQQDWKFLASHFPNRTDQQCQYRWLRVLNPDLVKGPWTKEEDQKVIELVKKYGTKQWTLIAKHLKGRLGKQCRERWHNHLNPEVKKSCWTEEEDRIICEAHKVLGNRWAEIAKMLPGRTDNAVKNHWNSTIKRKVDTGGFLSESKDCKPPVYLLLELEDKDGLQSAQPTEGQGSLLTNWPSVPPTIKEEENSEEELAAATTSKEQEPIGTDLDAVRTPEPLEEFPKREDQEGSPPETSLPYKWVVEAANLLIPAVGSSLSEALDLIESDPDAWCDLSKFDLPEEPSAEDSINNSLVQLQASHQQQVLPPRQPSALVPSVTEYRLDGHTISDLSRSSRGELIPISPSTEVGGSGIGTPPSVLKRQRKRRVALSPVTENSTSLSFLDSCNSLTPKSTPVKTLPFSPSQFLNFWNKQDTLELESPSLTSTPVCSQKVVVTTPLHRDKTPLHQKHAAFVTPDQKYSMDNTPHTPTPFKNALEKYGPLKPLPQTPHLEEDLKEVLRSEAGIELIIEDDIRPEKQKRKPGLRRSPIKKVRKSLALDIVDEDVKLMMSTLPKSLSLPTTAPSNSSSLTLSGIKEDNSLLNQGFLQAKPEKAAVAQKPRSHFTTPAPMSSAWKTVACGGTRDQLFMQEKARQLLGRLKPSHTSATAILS

One test deals with GST-cyclin A (UniProt P20248). Nature of the test: pull-down; GST or GST-cyclin A on glutathione-sepharose beads incubated with lysates of QT6 cells transiently expressing B-Myb(wt) or B-Myb(CBM); western blot for B-Myb; only the target purified.
The target of test [1] is GST-Pin1 (UniProt Q13526). Nature of the test: pull-down; GST-Pin1 on glutathione-sepharose beads incubated with lysates of QT6 cells transiently expressing B-Myb proteins, with or without cyclin A/Cdk2; cells asynchronous or 24 h in serum-free or mimosine-containing medium; western blot; only the target purified.
The target in a further test is GFP-cyclin A (UniProt P20248). As to the kind of experiment: co-IP; QT6 cells co-transfected with B-Myb(wt) or B-Myb(CBM) and GFP or GFP-cyclin A; lysates precipitated with GFP-trap beads; western blot.
The target of the next test is GST-Plk1 (human) (UniProt P53350). As to the kind of experiment: pull-down; GST-Plk1 on glutathione-sepharose beads incubated with lysates of QT6 cells transiently expressing B-Myb(wt) or B-Myb(T476A); western blot; only the target purified.
A further test has as its target GFP-B-Myb(T476A) (human) (UniProt P10244). Nature of the test: co-IP; QT6 cells transiently expressing Myc-Plk1 with GFP-B-Myb(wt) or GFP-B-Myb(T476A); lysates precipitated with GFP-trap beads; western blot.
The target of a further test is GFP-B-Myb(wt) (human) (UniProt P10244). The test is described as above.
The target in test [2] is GST-Pin1 (UniProt Q13526). Nature of the test: pull-down; GST-Pin1 on glutathione-sepharose beads incubated with lysates of Hek293 or HepG2 cells, untreated or treated with STLC for 12 h (binding strongly enhanced with STLC); ELB buffer, 4°C; western blot for B-Myb and phospho-B-Myb(T487); only the target purified.
In test [3] the target is endogenous Plk1 (human (endogenous in HepG2 and Hek293)) (UniProt P53350). Nature of the test: co-IP; lysates of HepG2 or Hek293 cells (asynchronous, S-phase, G2/M, STLC; or roscovitine or RO-3306 for 30 min: association diminished) immunoprecipitated with pan-B-Myb, phospho-B-Myb(T487), Plk1 or control antibodies; western blot.
The target of test [4] is GST-Pin1 (UniProt Q13526). As to the kind of experiment: condition: only cells pretreated with roscovitine or RO-3306 for 30 min; pull-down; as a1, but cells pretreated with roscovitine or RO-3306 for 30 min before lysis; only the target purified.
Test [5] concerns the target endogenous Pin1 (human (endogenous in HepG2)) (UniProt Q13526). As to the kind of experiment: co-IP; HepG2 lysates (unsynchronized cells, modified ELB buffer with 150 mM NaCl, 0.5% Triton X-100) immunoprecipitated with Pin1-specific or control IgG antibodies; western blot for B-Myb, phospho-B-Myb(T487), Pin1.
In test [6] the target is endogenous B-Myb, slower migrating, phosphorylated forms (human (endogenous in Hek293 and HepG2)) (UniProt P10244). Nature of the test: co-IP; lysates of HepG2 or Hek293 cells (asynchronous, S-phase, G2/M, STLC; or roscovitine or RO-3306 for 30 min: association diminished) immunoprecipitated with pan-B-Myb, phospho-B-Myb(T487), Plk1 or control antibodies; western blot.

These are yes or no findings as the source states them, for the method shown. Binding seen in cells or lysates may run through a third protein. Some entries that bind do so weakly or less than the wild type.

As to B-Myb(CBM) (from UniProt P10244 1-700), the binding result in the test with GST-cyclin A is recorded as “no binding”; with GST-Pin1 [1], “binds”; with GFP-cyclin A it was “no binding”.
Turning to “B-Myb(T476A) (from UniProt P10244 1-700)”, the binding entry with GST-Plk1 (human) is recorded as “no binding”.
For the substance “B-Myb(wt), transiently expressed (from UniProt P10244 1-700)”, the binding result with GST-cyclin A, with GST-Pin1 [1], with GST-Plk1 (human) and in the test with GFP-cyclin A was “binds” in each case.
Consider “Myc-Plk1 (from UniProt P53350 1-603) (enzyme)”, for which the figures for the binding entry in the test with GFP-B-Myb(T476A) (human) and with GFP-B-Myb(wt) (human) were “no binding” and “binds”, respectively.
“endogenous B-Myb, slower migrating, phosphorylated forms (from UniProt P10244 1-700)”: the binding result is “binds” with GST-Pin1 [2], “binds” in test [3], “no binding” with GST-Pin1 [4] and “binds” in test [5].
Regarding “endogenous Plk1 (from UniProt P53350 1-603) (enzyme)”, in test [6], the binding result is “binds”.
